This series concerns V. paradoxus CL14. Briefly: IAA degradation by V. paradoxus CL14 wild type, deletion and complemented strains (Salkowski reagent). The class given is cell-based, Variovorax paradoxus CL14. The following applies: at 70 hours.

Where “and” joins values, the source holds several entries; their conditions need not be identical. Equal entries are not always repeated.

For `O=C(O)Cc1c[nH]c2ccccc12` [IAA, indole-3-acetic acid], the “IAA (mg/mL), single measures” value is 0.005142 mg/mL and 0.008114 mg/mL and 0.005127 mg/mL (CL14 ΔHS33 background carrying Vector 2); 0.1083 mg/mL and 0.1116 mg/mL and 0.1137 mg/mL (CL14 ΔHS33 background carrying pBBR1::61-49); 0.1113 mg/mL and 0.1079 mg/mL and 0.1099 mg/mL (CL14 ΔHS33 background carrying pBBR1::61-54); 0.1186 mg/mL and 0.125 mg/mL and 0.1166 mg/mL (CL14 ΔHS33 background carrying pBBR1::61-59); 0.1076 mg/mL and 0.1063 mg/mL and 0.1085 mg/mL (CL14 ΔHS33 background carrying pBBR1::65-54); 0.1077 mg/mL and 0.1068 mg/mL and 0.1104 mg/mL (CL14 ΔHS33 background carrying pBBR1::65-62). For the same molecule, the “IAA (mg/mL), single measures” value was 0.006047 mg/mL and 0.00671 mg/mL and 0.006551 mg/mL (CL14 ΔHS33 background carrying pBBR1::70-62); 0.004755 mg/mL and 0.004311 mg/mL and 0.004654 mg/mL (CL14 ΔHS33 background carrying pBBR1::70-66 (iadCDEFG)); 0.004568 mg/mL and 0.006321 mg/mL and 0.004955 mg/mL (CL14 ΔHS33 background carrying pBBR1::72-66); 0.1037 mg/mL and 0.1022 mg/mL and 0.09963 mg/mL (CL14 ΔHS33 background carrying pBBR1::72-71); 0.1057 mg/mL and 0.1078 mg/mL and 0.1056 mg/mL (CL14 ΔHS33 background carrying pBBR1::77-71); 0.1072 mg/mL and 0.106 mg/mL and 0.105 mg/mL (CL14 ΔHS33 background carrying pBBR1::77-73). Besides, the “IAA (mg/mL), single measures” value by setting is: (CL14 ΔHS33 background carrying pBBR1::iadCDE) 0.004554 mg/mL and 0.004354 mg/mL and 0.007057 mg/mL; (CL14 ΔHS33 background carrying pBBR1::iadCDEF) 0.007288 mg/mL and 0.003997 mg/mL and 0.004125 mg/mL; (CL14 ΔHS33 background carrying pBBR1::iadCDEG) 0.005788 mg/mL and 0.006349 mg/mL; (CL14 ΔHS33 background carrying pBBR1::iadCDFG) 0.1286 mg/mL and 0.1307 mg/mL and 0.1292 mg/mL; (CL14 ΔHS33 background carrying pBBR1::iadCEFG) 0.1464 mg/mL and 0.1065 mg/mL and 0.1581 mg/mL; (CL14 ΔHS33 background carrying pBBR1::iadDE) 0.01004 mg/mL and 0.005788 mg/mL and 0.005572 mg/mL. The “IAA (mg/mL), single measures” value by setting is: (CL14 ΔHS33 background carrying pBBR1::iadDEFG) 0.006119 mg/mL and 0.005544 mg/mL; (CL14 ΔHS33 background carrying pBBR1MCS-2) 0.1086 mg/mL and 0.1159 mg/mL and 0.1128 mg/mL.

The record behind these values is PMC9613470, “Diverse MarR bacterial regulators of auxin catabolism in the plant microbiome” (Nature Microbiology, 2022).
